Reference: patent US4483833A, “Process for selective removal of H2 S from mixtures containing H2 2 with heterocyclic tertiary aminoalkanols” (Exxon Research & Engineering Co., priority 1982, dated 1984)
For at least one compound, name, drawing or mass did not settle the structure.

Test: 15N NMR chemical shift as a means of determining selectivity to H2S removal
Type: physicochemical
Conditions: 90% by wt. amine in 10% by wt. D2O, 35° C.; liquid ammonia at 25° C. as zero reference
Protocol: Another means for determining whether an amino compound is selective to H2 S removal is by measuring its 15N nuclear magnetic resonance (NMR) chemical shift. […] D2 O at 35° C. is measured by a spectrometer using liquid (neat) ammonia at 25° C. as a zero reference value. For example, N-(2-hydroxyethoxyethyl)pyrrolidine (HEEP) has a ^15 N NMR chemical shift value of δ+53.2 ppm whereas diethylmonoethanolamine (DEAE), N-methyl-N-tertiarybutylaminoethoxyethanoland methyldiethanolamine (MDEA) have ^15 N NMR chemical shift values of δ+43.7, δ+45.0 and δ+27.4 ppm, respectively.

## CN(CCOCCO)C(C)(C)C [N-methyl-N-tertiarybutylaminoethoxyethanol]
  15N NMR chemical shift (δ+): 45.0 ppm
